# Source: publication PMC4554459, “Paracoccus denitrificans possesses two BioR homologs having a role in regulation of biotin metabolism”
# For at least one entry, the source does not settle the construct or the ends of the probe. At least one result comes from cells or an extract, where the contact may be indirect. Tags and fusion partners may be left off the protein sequences shown.
# Biological target: T1, BioR1 (Paracoccus denitrificans PD1222) (UniProt A1B1Y8)
# T1 sequence (looked up): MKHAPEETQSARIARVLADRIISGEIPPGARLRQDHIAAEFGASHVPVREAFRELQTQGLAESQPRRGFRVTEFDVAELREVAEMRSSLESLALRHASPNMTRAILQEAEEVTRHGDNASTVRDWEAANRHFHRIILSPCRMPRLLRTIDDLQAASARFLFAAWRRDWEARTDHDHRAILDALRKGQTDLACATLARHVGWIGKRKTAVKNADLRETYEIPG
# Experiment: EMSA
# Settings: crude extract; ~0.2 pmol DIG-labeled probe with BioR (10-20 pmol BioR2 in 15 uL, Fig. 6) in Roche binding buffer, 15 min, room temperature; native 7% PAGE; protein in a lysate after overexpression; residues 1-222; protein details: 6xHis (pET28a); label: digoxigenin
row,Sequence,binding result
1,CTCTCTTGAGGAGGCAAAAATTATCTATAATTTGCCATTTAACGACCTGC (double strand) [bioBFDAZ_at (bioB_at) probe],binds
2,GGCGCTGACCGTTTTATAGATACTTCCACATGAGGC (double strand) [bioBFDAGC_pd probe],binds
3,GGTGCAGCATGAATTATCTATAATTCATGAAACACG (double strand) [bioR1_pd probe],binds
